Some of the results follow.
Biological target: OsWRKY34 (Oryza sativa, UniProt Q0JBA9 1-250)
Experiment: protein-binding microarray (RPBM); PBS, 2% BSA, 51.3 ng/ul salmon testes DNA, 50 uM zinc acetate, 200 nM TF, 25 C, 1 h; high values mean tight binding
Settings: protein: recombinant; tags: N-terminal polyhistidine and DsRed monomer fusion (pET32a); label: CyDye5-dUTP incorporated in the synthesized complementary strand; 3' TTTTT single-stranded linker to array surface; dsDNA, one strand shown
In short: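 Binding signal is defined as the fluorescence intensity of each feature in arbitrary units, read on an Axon 4000B scanner. Transcription factors with N-terminal polyhistidine and DsRed fusions came from E. coli BL21-CodonPlus and were purified on Ni–NTA. They were incubated at 200 nM for 1 h at 25 °C on a custom Agilent array that had been made double-stranded with Cy5-dUTP, with 50 µM zinc acetate present, and the array was washed.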

The chains behind the UniProt entries cited, without tags or fusion partners.
UniProt Q0JBA9, entry or part of it: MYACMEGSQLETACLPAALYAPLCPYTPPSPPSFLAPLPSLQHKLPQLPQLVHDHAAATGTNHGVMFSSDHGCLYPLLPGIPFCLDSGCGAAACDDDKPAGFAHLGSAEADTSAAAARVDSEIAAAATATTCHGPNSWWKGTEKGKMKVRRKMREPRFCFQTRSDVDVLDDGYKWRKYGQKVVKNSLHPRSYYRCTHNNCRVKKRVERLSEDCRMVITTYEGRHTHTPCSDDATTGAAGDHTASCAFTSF

Sequence | binding signal
ATCCTCTCTCACTTAGAACAACCCAATCATCTCCTTGTAACGGAGTCACCTAGTGCAG | 8670 fluorescence intensity (a.u.)
ATTGGAGGGAAGAATTGCTTCCATGCTTACTCAACCTTACCGGAGTCACCTAGTGCAG | 8130 fluorescence intensity (a.u.)
TCTTGGCGCTGTCGGTGTGTGGGTGGCGTTATATTTTTTTCGGAGTCACCTAGTGCAG | 9900 fluorescence intensity (a.u.)
GTGGTGTGCGTCGCGTGGAGACATGTGCGAAATGCCGGGGCGGAGTCACCTAGTGCAG | 8300 fluorescence intensity (a.u.)
AGTTGCTTTTGTTGGGTTCAAATTCTGGCCCGTCACAGGCCGGAGTCACCTAGTGCAG | 9120 fluorescence intensity (a.u.)
ATTTAGTGGGCATGTTCTTCTCCATTCTCTTCATGTGTACCGGAGTCACCTAGTGCAG | 9040 fluorescence intensity (a.u.)
AAGAAGTTAACAGAGCCCACAGGCCACAGATGTGTTTGACCGGAGTCACCTAGTGCAG | 8410 fluorescence intensity (a.u.)
GCTAGAAAATAGTGGGGATGGTGTATGCATTGAGTTTGTTCGGAGTCACCTAGTGCAG | 15800 fluorescence intensity (a.u.)
TCTATTCATAGTCAAATTTGTTATTTTTGTTTCTAATTGTCGGAGTCACCTAGTGCAG | 11200 fluorescence intensity (a.u.)
GCTACCACCACCCATCCCCACCACCACCACCACCTCCCTTCGGAGTCACCTAGTGCAG | 9500 fluorescence intensity (a.u.)
TGGTCAACACCGATGTGCTTCTAGTACTTCTCTTTTCTCACGGAGTCACCTAGTGCAG | 9570 fluorescence intensity (a.u.)
GAGCTCACCACACACTCGCTACCCTACTTCTTCTGTTCGTCGGAGTCACCTAGTGCAG | 9820 fluorescence intensity (a.u.)
ATGTTTTTCAAAAATACTAACCAGTGTGTTCTTTTTTTTTCGGAGTCACCTAGTGCAG | 8500 fluorescence intensity (a.u.)
ATTTCGGATTTGTATGTATTGTGTTTTTTTAAAAAAAATTCGGAGTCACCTAGTGCAG | 9880 fluorescence intensity (a.u.)
ATTTTGGCTTCAATCCAAACACAATTTTACCTTTGCCAAACGGAGTCACCTAGTGCAG | 8030 fluorescence intensity (a.u.)
ATCTGATCCCTGCTCGATCTCTTCTACTACCGAAACACAACGGAGTCACCTAGTGCAG | 8520 fluorescence intensity (a.u.)
TACACACGCTAGAGGAGGAGATGGGTTGGTAGAGGGGAGGCGGAGTCACCTAGTGCAG | 8580 fluorescence intensity (a.u.)
ATTATGGTGTTTCTTAATTGCTTTTTGCTTTTTATTATATCGGAGTCACCTAGTGCAG | 8170 fluorescence intensity (a.u.)
CTCTCCATCAGCAAGCAAGGTATCGATCAGGCATCACCCACGGAGTCACCTAGTGCAG | 9800 fluorescence intensity (a.u.)
GAGTGGTTAAGGTATGGATGAGGTCTATATGTATACATGTCGGAGTCACCTAGTGCAG | 9050 fluorescence intensity (a.u.)
CACTCACACACACACACAATACAACAAGCCTACAACTCATCGGAGTCACCTAGTGCAG | 8440 fluorescence intensity (a.u.)

Sequence | binding signal
GACCTGTTTTTCATTTTAAACCAGAGCTACCGATGGGTTTCGGAGTCACCTAGTGCAG | 8520 fluorescence intensity (a.u.)
TTCGCTCTATCTTCCTTGTCGTGGCCACTCTCGTTTTCATCGGAGTCACCTAGTGCAG | 9430 fluorescence intensity (a.u.)
ATGCAAGCTAGTGTGATCCAGGGGTTCGTTTTGTTTCTTGCGGAGTCACCTAGTGCAG | 10100 fluorescence intensity (a.u.)
TTCATGTATAGCTCATCCTACTAATCATTTCACACTAGTTCGGAGTCACCTAGTGCAG | 8370 fluorescence intensity (a.u.)
AACCTCACTCTTGTATAGAACGACAAGTATTATCGGCCCACGGAGTCACCTAGTGCAG | 8460 fluorescence intensity (a.u.)
TGTCGTGGTGTTTTTACTTCTTATTCAGTTTTTTTATACTCGGAGTCACCTAGTGCAG | 11600 fluorescence intensity (a.u.)
TATAAGTCATTTGACTTTTTTTCTAGCTAAACTTCTTTAACGGAGTCACCTAGTGCAG | 10400 fluorescence intensity (a.u.)
CTATTAATGGGGATTGGGGATGGATTGTGTTGAGCTGGAACGGAGTCACCTAGTGCAG | 10500 fluorescence intensity (a.u.)
TTGGGGTTTTTAGAATATCTATACATTTGTTGATAAATTTCGGAGTCACCTAGTGCAG | 8640 fluorescence intensity (a.u.)
TCACAATTCTTCACTTACCTGAAACGCGACGACCATATCACGGAGTCACCTAGTGCAG | 8500 fluorescence intensity (a.u.)
CGAGGGAGGGGAGGAGGAGGAGAGTGGCGGCGGCGGCGGCCGGAGTCACCTAGTGCAG | 8750 fluorescence intensity (a.u.)
AAAAGGCGCGGTGACCACGGCAGACTTGCGGTGGATGGGGCGGAGTCACCTAGTGCAG | 8590 fluorescence intensity (a.u.)
ACACTCTAAAACTACTAGATTTTCATCATTTTGTTACAGCCGGAGTCACCTAGTGCAG | 8680 fluorescence intensity (a.u.)
GATGACCTTGCAAGTATAATCTCGTGTCATCAGGCAAACGCGGAGTCACCTAGTGCAG | 8850 fluorescence intensity (a.u.)
GCTATATTCCAGTTTGTGTAATTGTGTTGCCATCTATTAACGGAGTCACCTAGTGCAG | 9720 fluorescence intensity (a.u.)
TTGCACTACATTTTTTTTTCCTTATGATTAGCCTACTACACGGAGTCACCTAGTGCAG | 10600 fluorescence intensity (a.u.)
TTCTCGCCGTCTTCTCTTCTCCACCACCTCGCTGCCTTCTCGGAGTCACCTAGTGCAG | 8690 fluorescence intensity (a.u.)
GGCTAGCCTCCGCAGACACACGCCATCCGAAATTCCCGTACGGAGTCACCTAGTGCAG | 8950 fluorescence intensity (a.u.)
GCGGCACATCCATCTTTTTCCACGACCGCCTCCGCCGCGCCGGAGTCACCTAGTGCAG | 8680 fluorescence intensity (a.u.)
CTACCTCACCCATGGCTGCTTCCTGGCCACAGCAACCCACCGGAGTCACCTAGTGCAG | 8980 fluorescence intensity (a.u.)
GACACCATATCCGCATCCGCATCCGCATCCATCTCATACTCGGAGTCACCTAGTGCAG | 9580 fluorescence intensity (a.u.)

Exported as labelled records: part of the list above
ACACTCTAAAACTACTAGATTTTCATCATTTTGTTACAGCCGGAGTCACCTAGTGCAG
  binding signal: 8680 fluorescence intensity (a.u.)
GATGACCTTGCAAGTATAATCTCGTGTCATCAGGCAAACGCGGAGTCACCTAGTGCAG
  binding signal: 8850 fluorescence intensity (a.u.)
GCTATATTCCAGTTTGTGTAATTGTGTTGCCATCTATTAACGGAGTCACCTAGTGCAG
  binding signal: 9720 fluorescence intensity (a.u.)
TTGCACTACATTTTTTTTTCCTTATGATTAGCCTACTACACGGAGTCACCTAGTGCAG
  binding signal: 10600 fluorescence intensity (a.u.)

Later entries

Sequence | binding signal
TCCCGCATGTGTTGTGTGATGTGTCTCGTCTCCGCCACCACGGAGTCACCTAGTGCAG | 11400 fluorescence intensity (a.u.)
CTCTTGCTCTGCTCTGTTTTTGGCCCATCCTCACCCACAACGGAGTCACCTAGTGCAG | 10600 fluorescence intensity (a.u.)
ATTGATTTATGACTGTATATTTTTTATCATGTTGTGCTTTCGGAGTCACCTAGTGCAG | 9310 fluorescence intensity (a.u.)
TCTCGTGTTTCTCGCGCCCCAATTAATCCACGGGCCACAACGGAGTCACCTAGTGCAG | 9070 fluorescence intensity (a.u.)
TAGTGATAAATGTTTTTGTTTCTTTGTGCATATCGAATTTCGGAGTCACCTAGTGCAG | 8960 fluorescence intensity (a.u.)
TCCATCCTCGACACCACCGTCTCCGCTTCCCTTTCCATTCCGGAGTCACCTAGTGCAG | 11600 fluorescence intensity (a.u.)
TTGATGAACTTATTTCCTTTTCGTAATCCGGGCCCACCAACGGAGTCACCTAGTGCAG | 9680 fluorescence intensity (a.u.)
TAGTACCTTCCCTTTTGGTTTATTGAGTCGATTGGGTCGACGGAGTCACCTAGTGCAG | 8040 fluorescence intensity (a.u.)
ATTTTCTATTATTTATTTTTTTAGGCCTAATCCTTCTTCCCGGAGTCACCTAGTGCAG | 8480 fluorescence intensity (a.u.)
GGCTACGACTTCCCTTCATCTCGCCGCTATAAGTATCCCGCGGAGTCACCTAGTGCAG | 8670 fluorescence intensity (a.u.)
GCACATGCTGAAAAACACACACACACACACATTATTTTTTCGGAGTCACCTAGTGCAG | 8470 fluorescence intensity (a.u.)
TTTCTCCTCACCGTCCGAACGGGCTCACCGGCCCCTCCCTCGGAGTCACCTAGTGCAG | 9320 fluorescence intensity (a.u.)
CATTGTGTGGAAGTACTATCTTTTGCATGCAGGTCTCCTACGGAGTCACCTAGTGCAG | 8190 fluorescence intensity (a.u.)
CCTATCCATGATCGCGTCCCGCCCGCGCGCCGCGCGCGCGCGGAGTCACCTAGTGCAG | 9940 fluorescence intensity (a.u.)
AGAGCGGGTGGGAGGCGAAGTAGACAGGGGCGGGGCGCATCGGAGTCACCTAGTGCAG | 15700 fluorescence intensity (a.u.)
CAGATCACAACCCTGCACTGGCTAGCTATATATACACATACGGAGTCACCTAGTGCAG | 11800 fluorescence intensity (a.u.)
TGACTCCTGCTGCGCTCTCAGCGTCTGTATTCTCCTCAGTCGGAGTCACCTAGTGCAG | 9280 fluorescence intensity (a.u.)
CTTATCTTCTGAAAATTATGTTGTGTTCTTCTCCTCTTACCGGAGTCACCTAGTGCAG | 8100 fluorescence intensity (a.u.)
CCTAATCCGCGTTCTCCCTTCTTTCTACTCGCCTCCGCCTCGGAGTCACCTAGTGCAG | 8940 fluorescence intensity (a.u.)
GCCTCACATGCTTTTTATTTTTTTTTTCTGACTAGAATTTCGGAGTCACCTAGTGCAG | 10500 fluorescence intensity (a.u.)
GCTACTATCACTTCATGCTCATATTATCTCGACGTTTTACCGGAGTCACCTAGTGCAG | 10800 fluorescence intensity (a.u.)

Sequence | binding signal
TTCCTCCATCCATTTTGTCAACTCCTCTCCGCTTTTCATCCGGAGTCACCTAGTGCAG | 9640 fluorescence intensity (a.u.)
ATCTCACCATCCCATCCACGCTTCTCGACTCCCAGACGACCGGAGTCACCTAGTGCAG | 9740 fluorescence intensity (a.u.)
CCTCCAATCCACTGGTAGCACACGCACGTCCATTCTTCGTCGGAGTCACCTAGTGCAG | 9100 fluorescence intensity (a.u.)
CTTCGTCACCCGGTATCCTTGACCGTTTGGACCTCAACTCCGGAGTCACCTAGTGCAG | 10100 fluorescence intensity (a.u.)
CTCACCTGCTCCTACTTACAGACAAGGCCTTGGGCCCTTACGGAGTCACCTAGTGCAG | 8810 fluorescence intensity (a.u.)
ACATTTTTTATATACTTCCTCCGTTTCACAATGTAAGTCACGGAGTCACCTAGTGCAG | 8230 fluorescence intensity (a.u.)
ATTATCAATTTGTTATTGTGTACCTCGGTTGACTCCTGGACGGAGTCACCTAGTGCAG | 8200 fluorescence intensity (a.u.)
TTAATATATTTTTTAGCTACTTCATATTATATACTTGTTACGGAGTCACCTAGTGCAG | 8090 fluorescence intensity (a.u.)
ACCCGTTCCACCGCCTCGCCGTCCACTTCCAAACCCAACCCGGAGTCACCTAGTGCAG | 8740 fluorescence intensity (a.u.)
CCTATTTATCCTTTATTCTCTAGCATAGCATTGTCTTAGGCGGAGTCACCTAGTGCAG | 8670 fluorescence intensity (a.u.)
TTTCACCTCGATATTTTCCCTTGGAGACTCGTACATCGACCGGAGTCACCTAGTGCAG | 9230 fluorescence intensity (a.u.)
TTCATACCTATAGCCGCCACGGACTCTTTTCATTCATTCCCGGAGTCACCTAGTGCAG | 9980 fluorescence intensity (a.u.)
TGTTCTTCAAGTTCCTGCGCATGTCTCCAGCCAACTCCCACGGAGTCACCTAGTGCAG | 8570 fluorescence intensity (a.u.)
ATAATTTGTTCATGCTCTCACTCCTTTGGGAGGTGCTCATCGGAGTCACCTAGTGCAG | 8460 fluorescence intensity (a.u.)
CCTACACGTGTCCATCCTCAACCACGCGTCGGCACCTCCACGGAGTCACCTAGTGCAG | 8340 fluorescence intensity (a.u.)
ATCCTCTACGCATCCACCTGTGCCTCCTTTAATTCTAAGTCGGAGTCACCTAGTGCAG | 11000 fluorescence intensity (a.u.)
ATGGGAAGGGAATAATAATAATGCGTTGGGTTGGGTTCCGCGGAGTCACCTAGTGCAG | 8380 fluorescence intensity (a.u.)
GGGGATTTTACAACACATGAGTTCCTGCAGCTACATTTTACGGAGTCACCTAGTGCAG | 12200 fluorescence intensity (a.u.)
AGCCGTTAGGATCGCCCGCTCGCCGCAACGTTCTCTTTTTCGGAGTCACCTAGTGCAG | 8520 fluorescence intensity (a.u.)
CGTCGTTGACTCCTCTATAGTTGGTACTAGCTGTTAACTCCGGAGTCACCTAGTGCAG | 10300 fluorescence intensity (a.u.)
CGAATTTTATCGCGCCCTCCGCATCATTCCGTCCGTTTTTCGGAGTCACCTAGTGCAG | 9720 fluorescence intensity (a.u.)
